The supplement of paper PMC10849652
This is one part of the list.

Sequences of proteins named here, by UniProt entry; tags and fusion partners are left off. A change or cut given only in a name is not applied to a line headed by its entry.
UniProt P61647: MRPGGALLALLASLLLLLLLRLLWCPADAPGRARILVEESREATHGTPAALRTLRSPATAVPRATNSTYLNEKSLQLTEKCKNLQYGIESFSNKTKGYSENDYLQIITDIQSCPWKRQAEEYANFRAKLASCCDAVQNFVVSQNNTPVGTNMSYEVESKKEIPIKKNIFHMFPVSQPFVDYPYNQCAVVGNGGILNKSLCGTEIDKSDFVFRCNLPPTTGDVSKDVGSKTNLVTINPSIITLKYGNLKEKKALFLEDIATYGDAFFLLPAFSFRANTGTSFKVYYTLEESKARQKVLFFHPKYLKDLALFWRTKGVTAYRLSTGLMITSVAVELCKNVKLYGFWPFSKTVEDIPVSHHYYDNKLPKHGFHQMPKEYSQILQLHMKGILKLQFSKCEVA
UniProt P35270: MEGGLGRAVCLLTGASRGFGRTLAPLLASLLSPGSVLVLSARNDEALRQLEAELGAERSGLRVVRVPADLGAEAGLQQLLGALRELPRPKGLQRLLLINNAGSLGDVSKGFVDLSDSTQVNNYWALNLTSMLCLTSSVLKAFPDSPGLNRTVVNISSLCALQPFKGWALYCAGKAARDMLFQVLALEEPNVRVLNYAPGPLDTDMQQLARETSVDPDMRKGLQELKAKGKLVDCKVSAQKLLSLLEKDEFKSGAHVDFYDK
UniProt Q96JI7: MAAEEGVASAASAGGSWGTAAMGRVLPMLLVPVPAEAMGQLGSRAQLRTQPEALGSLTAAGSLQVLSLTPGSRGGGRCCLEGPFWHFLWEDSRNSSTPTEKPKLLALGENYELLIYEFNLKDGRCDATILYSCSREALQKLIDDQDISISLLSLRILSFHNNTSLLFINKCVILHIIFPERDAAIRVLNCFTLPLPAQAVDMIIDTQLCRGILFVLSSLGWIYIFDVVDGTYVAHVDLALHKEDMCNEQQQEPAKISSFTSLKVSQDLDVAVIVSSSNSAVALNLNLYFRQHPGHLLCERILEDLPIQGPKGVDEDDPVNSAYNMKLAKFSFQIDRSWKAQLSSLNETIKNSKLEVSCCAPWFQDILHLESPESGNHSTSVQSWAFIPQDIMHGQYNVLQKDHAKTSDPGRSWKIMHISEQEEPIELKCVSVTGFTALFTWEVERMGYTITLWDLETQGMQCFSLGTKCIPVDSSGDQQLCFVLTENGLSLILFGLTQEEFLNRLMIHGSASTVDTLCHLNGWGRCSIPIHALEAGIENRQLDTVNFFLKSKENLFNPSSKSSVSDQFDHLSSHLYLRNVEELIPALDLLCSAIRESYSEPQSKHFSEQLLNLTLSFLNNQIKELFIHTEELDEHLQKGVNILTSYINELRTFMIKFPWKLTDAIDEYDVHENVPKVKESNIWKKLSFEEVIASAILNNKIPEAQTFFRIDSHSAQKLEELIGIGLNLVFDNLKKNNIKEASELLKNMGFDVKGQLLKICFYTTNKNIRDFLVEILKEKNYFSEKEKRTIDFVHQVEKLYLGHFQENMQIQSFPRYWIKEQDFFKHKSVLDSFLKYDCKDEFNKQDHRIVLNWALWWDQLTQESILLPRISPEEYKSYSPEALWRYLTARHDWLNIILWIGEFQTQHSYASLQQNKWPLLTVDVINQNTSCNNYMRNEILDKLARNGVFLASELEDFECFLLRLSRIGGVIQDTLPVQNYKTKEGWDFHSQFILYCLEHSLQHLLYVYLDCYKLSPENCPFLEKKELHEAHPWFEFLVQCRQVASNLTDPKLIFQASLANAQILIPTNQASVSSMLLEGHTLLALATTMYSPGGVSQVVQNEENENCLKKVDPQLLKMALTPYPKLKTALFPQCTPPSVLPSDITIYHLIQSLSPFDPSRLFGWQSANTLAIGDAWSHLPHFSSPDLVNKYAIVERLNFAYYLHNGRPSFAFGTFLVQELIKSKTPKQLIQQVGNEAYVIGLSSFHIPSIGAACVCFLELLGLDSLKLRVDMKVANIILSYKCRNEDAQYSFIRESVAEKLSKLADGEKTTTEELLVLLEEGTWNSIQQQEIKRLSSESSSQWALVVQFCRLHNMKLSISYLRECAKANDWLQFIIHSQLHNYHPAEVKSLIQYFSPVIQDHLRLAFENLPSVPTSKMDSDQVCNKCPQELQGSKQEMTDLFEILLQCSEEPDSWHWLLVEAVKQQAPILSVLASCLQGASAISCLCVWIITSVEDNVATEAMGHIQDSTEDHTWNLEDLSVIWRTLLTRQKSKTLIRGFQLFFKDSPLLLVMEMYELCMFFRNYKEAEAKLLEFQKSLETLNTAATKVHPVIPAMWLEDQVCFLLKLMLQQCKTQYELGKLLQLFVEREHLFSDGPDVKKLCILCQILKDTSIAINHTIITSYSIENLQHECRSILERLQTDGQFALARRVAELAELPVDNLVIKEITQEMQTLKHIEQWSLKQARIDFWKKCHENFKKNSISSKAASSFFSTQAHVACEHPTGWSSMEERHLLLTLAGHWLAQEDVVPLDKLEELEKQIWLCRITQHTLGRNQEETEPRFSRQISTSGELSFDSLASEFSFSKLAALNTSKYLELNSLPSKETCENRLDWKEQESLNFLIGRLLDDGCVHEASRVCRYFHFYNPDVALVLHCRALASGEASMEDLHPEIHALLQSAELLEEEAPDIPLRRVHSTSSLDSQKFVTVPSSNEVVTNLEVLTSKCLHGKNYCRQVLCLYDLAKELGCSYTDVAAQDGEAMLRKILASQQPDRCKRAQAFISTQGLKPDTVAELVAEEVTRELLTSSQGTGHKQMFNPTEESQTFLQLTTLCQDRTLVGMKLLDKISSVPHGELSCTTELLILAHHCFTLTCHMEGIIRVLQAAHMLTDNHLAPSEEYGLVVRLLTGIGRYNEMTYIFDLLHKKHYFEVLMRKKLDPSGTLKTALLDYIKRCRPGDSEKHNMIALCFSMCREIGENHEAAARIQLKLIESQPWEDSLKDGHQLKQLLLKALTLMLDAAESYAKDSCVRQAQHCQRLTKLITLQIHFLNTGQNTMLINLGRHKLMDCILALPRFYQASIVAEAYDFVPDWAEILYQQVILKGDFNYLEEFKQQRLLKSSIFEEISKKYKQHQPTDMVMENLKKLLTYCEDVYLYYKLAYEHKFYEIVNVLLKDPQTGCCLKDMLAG
UniProt Q8N0X7: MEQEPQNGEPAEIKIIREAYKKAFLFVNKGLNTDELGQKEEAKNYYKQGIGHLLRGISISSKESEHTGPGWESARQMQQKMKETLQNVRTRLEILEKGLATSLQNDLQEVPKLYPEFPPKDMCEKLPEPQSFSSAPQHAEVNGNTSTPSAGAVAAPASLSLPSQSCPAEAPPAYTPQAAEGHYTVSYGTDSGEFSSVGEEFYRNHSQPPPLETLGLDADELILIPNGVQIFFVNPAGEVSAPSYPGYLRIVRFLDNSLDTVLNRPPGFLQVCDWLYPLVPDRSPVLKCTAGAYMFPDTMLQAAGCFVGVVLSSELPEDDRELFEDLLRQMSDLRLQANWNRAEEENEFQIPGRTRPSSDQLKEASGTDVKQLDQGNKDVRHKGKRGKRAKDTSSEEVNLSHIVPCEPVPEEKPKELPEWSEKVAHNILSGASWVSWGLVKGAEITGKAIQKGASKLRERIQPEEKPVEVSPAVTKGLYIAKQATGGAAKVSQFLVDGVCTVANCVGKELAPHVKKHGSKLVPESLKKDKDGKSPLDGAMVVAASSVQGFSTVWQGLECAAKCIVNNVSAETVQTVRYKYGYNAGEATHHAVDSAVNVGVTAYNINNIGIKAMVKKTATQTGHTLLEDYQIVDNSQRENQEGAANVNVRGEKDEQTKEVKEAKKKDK
UniProt Q9UBP0: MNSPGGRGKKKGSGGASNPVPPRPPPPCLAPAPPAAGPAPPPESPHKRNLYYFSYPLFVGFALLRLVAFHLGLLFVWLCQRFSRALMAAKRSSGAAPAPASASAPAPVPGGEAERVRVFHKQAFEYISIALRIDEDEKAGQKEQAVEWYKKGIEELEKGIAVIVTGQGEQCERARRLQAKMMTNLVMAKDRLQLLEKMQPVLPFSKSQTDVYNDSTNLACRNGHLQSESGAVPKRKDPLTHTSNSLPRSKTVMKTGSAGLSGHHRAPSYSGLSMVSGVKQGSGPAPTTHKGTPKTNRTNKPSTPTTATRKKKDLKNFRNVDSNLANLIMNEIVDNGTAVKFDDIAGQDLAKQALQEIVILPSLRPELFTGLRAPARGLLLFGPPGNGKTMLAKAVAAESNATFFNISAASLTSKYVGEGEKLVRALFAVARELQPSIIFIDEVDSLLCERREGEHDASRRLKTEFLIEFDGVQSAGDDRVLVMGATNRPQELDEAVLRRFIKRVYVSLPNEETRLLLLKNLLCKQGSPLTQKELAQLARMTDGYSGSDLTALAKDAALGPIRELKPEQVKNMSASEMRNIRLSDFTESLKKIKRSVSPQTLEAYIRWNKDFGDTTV
UniProt P19623: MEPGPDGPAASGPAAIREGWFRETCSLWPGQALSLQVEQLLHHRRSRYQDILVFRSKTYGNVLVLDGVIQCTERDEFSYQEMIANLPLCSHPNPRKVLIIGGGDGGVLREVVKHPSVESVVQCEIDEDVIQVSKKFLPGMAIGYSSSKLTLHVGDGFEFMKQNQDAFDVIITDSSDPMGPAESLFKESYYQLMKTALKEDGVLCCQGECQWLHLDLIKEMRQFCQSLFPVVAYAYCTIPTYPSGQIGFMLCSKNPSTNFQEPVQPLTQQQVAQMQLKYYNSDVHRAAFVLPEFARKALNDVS
UniProt O15270: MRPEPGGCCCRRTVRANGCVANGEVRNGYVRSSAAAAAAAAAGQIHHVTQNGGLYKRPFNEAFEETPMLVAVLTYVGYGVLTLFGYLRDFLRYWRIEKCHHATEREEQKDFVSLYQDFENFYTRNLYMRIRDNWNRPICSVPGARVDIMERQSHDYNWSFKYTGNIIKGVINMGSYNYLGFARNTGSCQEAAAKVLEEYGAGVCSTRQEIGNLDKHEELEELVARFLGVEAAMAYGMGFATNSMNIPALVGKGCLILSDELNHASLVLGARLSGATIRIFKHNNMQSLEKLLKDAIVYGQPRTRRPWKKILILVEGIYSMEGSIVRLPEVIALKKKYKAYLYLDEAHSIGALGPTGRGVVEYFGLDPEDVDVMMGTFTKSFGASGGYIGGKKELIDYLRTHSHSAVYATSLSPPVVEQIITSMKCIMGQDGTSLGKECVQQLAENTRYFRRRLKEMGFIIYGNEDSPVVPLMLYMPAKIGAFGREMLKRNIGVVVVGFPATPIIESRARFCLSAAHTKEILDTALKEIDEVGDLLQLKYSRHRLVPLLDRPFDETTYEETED
UniProt Q5M775: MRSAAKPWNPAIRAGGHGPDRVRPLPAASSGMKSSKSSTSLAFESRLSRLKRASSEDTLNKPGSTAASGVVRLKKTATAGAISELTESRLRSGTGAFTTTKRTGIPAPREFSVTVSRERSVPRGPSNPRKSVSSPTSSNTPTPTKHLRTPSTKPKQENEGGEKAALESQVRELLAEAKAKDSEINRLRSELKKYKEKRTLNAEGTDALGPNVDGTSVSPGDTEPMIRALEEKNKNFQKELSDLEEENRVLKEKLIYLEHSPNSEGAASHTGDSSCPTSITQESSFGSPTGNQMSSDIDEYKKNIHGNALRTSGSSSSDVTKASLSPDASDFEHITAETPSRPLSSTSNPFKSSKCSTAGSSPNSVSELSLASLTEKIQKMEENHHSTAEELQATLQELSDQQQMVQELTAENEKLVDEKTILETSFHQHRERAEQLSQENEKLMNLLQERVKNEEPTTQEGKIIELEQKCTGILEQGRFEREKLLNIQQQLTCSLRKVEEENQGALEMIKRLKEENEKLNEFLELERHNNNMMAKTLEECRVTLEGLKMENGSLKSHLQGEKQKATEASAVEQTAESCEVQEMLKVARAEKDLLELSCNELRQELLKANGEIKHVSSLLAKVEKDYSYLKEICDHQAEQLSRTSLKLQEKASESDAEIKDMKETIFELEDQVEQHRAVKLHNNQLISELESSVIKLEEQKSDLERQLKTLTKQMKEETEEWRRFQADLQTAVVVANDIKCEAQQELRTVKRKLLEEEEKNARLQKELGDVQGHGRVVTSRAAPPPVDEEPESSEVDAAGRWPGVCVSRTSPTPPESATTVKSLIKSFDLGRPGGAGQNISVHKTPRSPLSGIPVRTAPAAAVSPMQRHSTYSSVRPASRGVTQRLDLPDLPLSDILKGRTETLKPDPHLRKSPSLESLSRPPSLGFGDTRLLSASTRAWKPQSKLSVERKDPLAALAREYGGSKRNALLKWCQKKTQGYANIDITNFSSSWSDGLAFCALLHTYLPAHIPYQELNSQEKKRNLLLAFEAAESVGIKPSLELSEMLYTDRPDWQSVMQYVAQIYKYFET
UniProt Q13243: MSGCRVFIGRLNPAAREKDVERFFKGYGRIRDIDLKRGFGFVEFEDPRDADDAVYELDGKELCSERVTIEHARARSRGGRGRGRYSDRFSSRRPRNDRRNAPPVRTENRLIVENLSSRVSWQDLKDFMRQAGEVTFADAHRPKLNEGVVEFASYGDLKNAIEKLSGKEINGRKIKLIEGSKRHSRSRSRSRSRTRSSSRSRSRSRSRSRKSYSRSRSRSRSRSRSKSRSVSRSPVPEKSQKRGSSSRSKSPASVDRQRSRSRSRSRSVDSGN

Experiments:
Assay in all cases: log2 fold change, soluble protein after heating vs DMSO (PISA); higher = thermal stabilisation; K562 cells, 10 uM, 30 min; active = over 0.2 and 3.5 SD of the protein, either way, in both replicates (recomputed)
[1] = compound: Cc1ccc(NC(=O)c2ccc(CN3CC[C@H](N(C)C)C3)c(C(F)(F)F)c2)cc1Nc1nccc(-c2cncnc2)n1 [bafetinib]
In short: (§1)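 K562 cells (2×10^6 cells/mL) were treated with 10 μM compound for 30 min, and aliquots were heated for 3 min over 48°C-58°C. Pooled aliquots were extracted in PBS with 0.5% NP-40 at 4°C, and the supernatant after 21,000xg for 90 min was measured by TMTpro 16plex LC-MS/MS with channel sums equalised. Reported thermal stability, relative to control samples and from duplicates, is a log2 fold change.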

[2] = compound: Cc1cccc(CC(=O)N2CCc3c2ccc(-c2cn(C)c4ncnc(N)c24)c3F)n1
In short: as §1

[3] = compound: Cc1cn(-c2cc(NC(=O)c3ccc(C)c(Nc4nccc(-c5cccnc5)n4)c3)cc(C(F)(F)F)c2)cn1 [nilotinib]
In short: as §1

[4] = compound: Cc1nc(Nc2n[nH]c3c2CN(C(=O)N[C@H](CN(C)C)c2ccccc2)C3(C)C)c2sccc2n1
In short: as §1

[5] = compound: Cc1nc(Nc2ncc(C(=O)Nc3c(C)cccc3Cl)s2)cc(N2CCN(CCO)CC2)n1 [dasatinib]
In short: as §1

[6] = compound: Cc1ncc(-c2ccnc(Nc3ccc(S(C)(=O)=O)cc3)n2)n1C(C)C
In short: as §1

[7] = compound: Cn1cc(-c2ccc3c(c2)CCN3C(=O)Cc2cccc(C(F)(F)F)c2)c2c(N)ncnc21
In short: as §1

[8] = compound: Cn1cc(-c2ccc3nnc(C(F)(F)c4ccc5ncccc5c4)n3n2)cn1
In short: as §1

[9] = compound: Cn1cncc1[C@@](N)(c1ccc(Cl)cc1)c1ccc2c(c1)c(-c1cccc(Cl)c1)cc(=O)n2C [tipifarnib]
In short: as §1

[10] = compound: FC(F)(F)c1ccc(/C=C/c2nc(COc3ccc(CCCCn4ccnn4)cc3)co2)cc1 [mubritinib]
In short: as §1

Measured: log2 fold change

ST8SIA6 (UniProt P61647)
inactive: [1] -0.211 | [2] -0.032

SPARC (UniProt P09486)
inactive: [1] -0.17 | [2] -0.149 | [3] 0.143 | [4] -0.121 | [5] -0.028 | [6] 0.029 | [7] -0.011 | [8] 0.091 | [9] 0.045 | [10] 0.024

SPINDOC (UniProt Q9BUA3)
inactive: [1] -0.149 | [2] -0.031 | [3] 0.049 | [5] -0.105 | [6] -0.127 | [7] -0.085 | [8] -0.044 | [9] 0.046 | [10] 0.04
active: [4] -0.458

SSR1 (UniProt P43307)
inactive: [1] -0.077 | [2] -0.041 | [3] -0.02 | [4] 0.063 | [5] 0.05 | [6] -0.021 | [7] 0.007 | [8] 0 | [9] 0.026 | [10] 0.024

SRCAP (UniProt Q6ZRS2)
inactive: [1] -0.057 | [2] -0.001 | [3] 0.072 | [4] 0.152 | [5] -0.038 | [6] -0.007 | [7] -0.061 | [8] 0.037 | [9] 0.083 | [10] 0.05

SRSF1 (UniProt Q07955)
inactive: [1] 0.135 | [2] -0.166 | [3] 0.066 | [4] -0.307 | [5] 0.177 | [6] 0.084 | [7] -0.158 | [8] -0.113 | [9] 0.121 | [10] -0.078

SPTA1 (UniProt P02549)
inactive: [1] 0.042 | [2] 0.037 | [3] -0.04 | [4] -0.148 | [5] 0.003 | [6] -0.031 | [7] -0.139 | [8] -0.099 | [9] 0.037 | [10] -0.138

SQLE (UniProt Q14534)
inactive: [1] 0.074 | [2] 0.028 | [3] 0.068 | [4] 0.003 | [5] 0 | [6] 0.024 | [7] 0.123 | [8] -0.029 | [9] 0.033 | [10] 0.049

STEAP3 isoform 2 (UniProt Q658P3)
inactive: [1] -0.044 | [2] 0.058 | [3] -0.001 | [4] -0.061 | [5] -0.028 | [6] 0.03 | [7] 0.039 | [8] 0.11 | [9] -0.085 | [10] -0.034

SPR (UniProt P35270)
inactive: [1] -0.062 | [2] -0.102 | [3] -0.04 | [4] -0.012 | [6] -0.029 | [7] 0.144 | [8] 0.298 | [10] -0.083
active: [5] 0.467 | [9] 0.499

SSB (UniProt P05455)
inactive: [1] -0.022 | [2] -0.018 | [3] -0.057 | [4] -0.125 | [5] -0.06 | [6] -0.123 | [7] -0.048 | [8] -0.02 | [9] 0.051 | [10] -0.111

SPG11 (UniProt Q96JI7)
inactive: [1] -0.493 | [2] -0.584 | [3] -0.015 | [4] 0.117 | [5] 0.065 | [6] -0.006 | [7] -0.051 | [8] 0.146 | [9] 0.258 | [10] -0.009

Looked up one by one from the entries so far (2):
SPINDOC (UniProt Q9BUA3)
inactive: [1] -0.149 | [2] -0.031 | [3] 0.049 | [5] -0.105 | [6] -0.127 | [7] -0.085 | [8] -0.044 | [9] 0.046 | [10] 0.04
active: [4] -0.458

SPG11 (UniProt Q96JI7)
inactive: [1] -0.493 | [2] -0.584 | [3] -0.015 | [4] 0.117 | [5] 0.065 | [6] -0.006 | [7] -0.051 | [8] 0.146 | [9] 0.258 | [10] -0.009

Continuation.

SPART (UniProt Q8N0X7)
inactive: [1] -0.041 | [2] -0.024 | [3] -0.047 | [4] -0.006 | [5] -0.117 | [6] 0.051 | [7] -0.025 | [8] 0.059 | [9] -0.077 | [10] 0.063

SPAST (UniProt Q9UBP0)
active: [5] -0.246
inactive: [1] -0.015 | [2] -0.057 | [3] -0.05 | [4] -0.054 | [6] 0.026 | [7] 0.099 | [8] -0.022 | [9] -0.065 | [10] 0.036

SRM (UniProt P19623)
inactive: [1] 0.017 | [2] 0.001 | [3] 0.042 | [4] 0.02 | [5] -0.018 | [6] -0.042 | [7] 0.061 | [8] 0.049 | [9] -0.069 | [10] 0.076

SSBP3 (UniProt Q9BWW4)
inactive: [1] 0.037 | [2] -0.063 | [3] 0.003 | [4] -0.016 | [5] -0.001 | [6] 0 | [7] 0.112 | [8] 0.145 | [9] -0.092 | [10] 0.021

STIM1 (UniProt Q13586)
inactive: [1] -0.143 | [2] 0 | [3] 0.002 | [4] -0.01 | [5] -0.006 | [6] -0.025 | [7] 0.028 | [8] 0.01 | [9] 0.012 | [10] 0.016

STAU1 (UniProt O95793)
inactive: [1] 0.241 | [2] 0 | [3] -0.041 | [4] 0.056 | [5] 0.166 | [6] -0.006 | [7] -0.344 | [8] -0.187 | [9] 0.304 | [10] -0.232

SRP54 (UniProt P61011)
inactive: [1] -0.021 | [2] 0.058 | [3] -0.029 | [4] -0.035 | [5] -0.093 | [6] 0.053 | [7] 0.021 | [8] 0 | [9] -0.061 | [10] 0.037

SPTLC2 (UniProt O15270)
inactive: [1] -0.058 | [2] 0.013 | [3] 0.067 | [4] 0.008 | [5] -0.024 | [6] 0.022 | [7] 0.043 | [8] 0.028 | [9] 0.029 | [10] 0.068

STAT3 (UniProt P40763)
inactive: [1] -0.015 | [2] -0.003 | [3] -0.097 | [4] -0.216 | [5] -0.141 | [6] 0.026 | [7] -0.027 | [8] 0.013 | [9] -0.172 | [10] 0.024

SRSF4 (UniProt Q08170)
inactive: [1] 0.215 | [2] -0.064 | [3] 0.013 | [5] 0.109 | [6] 0.028 | [7] -0.166 | [8] -0.14 | [9] 0.127 | [10] -0.109
active: [4] -0.602

SPECC1 (UniProt Q5M775)
inactive: [1] -0.102 | [2] -0.1 | [3] -0.108 | [4] -0.133 | [5] -0.067 | [6] 0.063 | [7] -0.035 | [8] 0.089 | [9] 0.028 | [10] 0.044

SPATA31E1 (UniProt Q6ZUB1)
inactive: [1] -0.092 | [2] -0.151 | [3] -0.144 | [4] 0.019 | [5] 0.233 | [6] -0.133 | [7] -0.019 | [8] 0.067 | [9] 0.112 | [10] -0.022

SRPRB (UniProt Q9Y5M8)
inactive: [1] 0.107 | [2] 0.14 | [3] 0.035 | [4] 0.026 | [5] -0.094 | [6] 0.121 | [7] 0.076 | [8] 0.031 | [9] -0.123 | [10] 0.134

SPCS2 (UniProt Q15005)
inactive: [1] -0.057 | [2] 0.003 | [3] 0.014 | [4] -0.034 | [5] 0 | [6] 0 | [7] 0.053 | [8] 0.025 | [9] -0.035 | [10] 0.037

ST6GAL1 (UniProt P15907)
inactive: [1] 0.001 | [2] 0.029 | [3] 0.168 | [4] -0.048 | [5] 0.131 | [6] -0.001 | [7] 0.007 | [8] -0.02 | [9] 0.128 | [10] -0.023

SPECC1L (UniProt Q69YQ0)
inactive: [1] 0.011 | [2] 0.011 | [3] 0.01 | [4] 0.032 | [5] -0.103 | [6] -0.005 | [7] 0.037 | [8] -0.041 | [9] -0.04 | [10] 0.073

SPTB isoform 2 (UniProt P11277)
inactive: [1] -0.596 | [2] 0.152 | [3] -0.185 | [4] -0.329 | [5] -0.066 | [6] -0.086 | [7] -0.114 | [8] -0.082 | [9] -0.023 | [10] -0.129

SRSF5 (UniProt Q13243)
inactive: [1] 0.189 | [2] -0.06 | [3] 0.024 | [4] -0.242 | [5] 0.145 | [6] -0.004 | [7] -0.239 | [8] -0.126 | [9] 0.186 | [10] -0.15
